T1: TOX-Flag (full-length TOX) (UniProt O94900)
T1 sequence: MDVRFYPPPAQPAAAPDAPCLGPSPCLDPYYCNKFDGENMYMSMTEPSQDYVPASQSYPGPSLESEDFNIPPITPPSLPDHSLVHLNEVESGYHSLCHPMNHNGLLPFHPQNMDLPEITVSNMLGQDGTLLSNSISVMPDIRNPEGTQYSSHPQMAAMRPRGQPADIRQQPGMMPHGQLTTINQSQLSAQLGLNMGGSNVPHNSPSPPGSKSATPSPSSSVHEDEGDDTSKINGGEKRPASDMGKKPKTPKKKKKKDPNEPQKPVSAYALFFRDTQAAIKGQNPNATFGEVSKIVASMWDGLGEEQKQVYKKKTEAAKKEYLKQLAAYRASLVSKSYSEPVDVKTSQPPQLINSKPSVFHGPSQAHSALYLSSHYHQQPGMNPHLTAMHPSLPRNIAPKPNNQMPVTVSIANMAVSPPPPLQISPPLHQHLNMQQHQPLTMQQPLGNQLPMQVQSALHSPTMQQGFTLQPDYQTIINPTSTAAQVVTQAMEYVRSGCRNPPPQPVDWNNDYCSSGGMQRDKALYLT

B1: TOX(N)-His (1–360) (domain or fragment, UniProt O94900 1-360)
chain: MDVRFYPPPAQPAAAPDAPCLGPSPCLDPYYCNKFDGENMYMSMTEPSQDYVPASQSYPGPSLESEDFNIPPITPPSLPDHSLVHLNEVESGYHSLCHPMNHNGLLPFHPQNMDLPEITVSNMLGQDGTLLSNSISVMPDIRNPEGTQYSSHPQMAAMRPRGQPADIRQQPGMMPHGQLTTINQSQLSAQLGLNMGGSNVPHNSPSPPGSKSATPSPSSSVHEDEGDDTSKINGGEKRPASDMGKKPKTPKKKKKKDPNEPQKPVSAYALFFRDTQAAIKGQNPNATFGEVSKIVASMWDGLGEEQKQVYKKKTEAAKKEYLKQLAAYRASLVSKSYSEPVDVKTSQPPQLINSKPSVFH
B2: TOX(C2)-Myc (361–526) (domain or fragment, UniProt O94900 361-526)
chain: GPSQAHSALYLSSHYHQQPGMNPHLTAMHPSLPRNIAPKPNNQMPVTVSIANMAVSPPPPLQISPPLHQHLNMQQHQPLTMQQPLGNQLPMQVQSALHSPTMQQGFTLQPDYQTIINPTSTAAQVVTQAMEYVRSGCRNPPPQPVDWNNDYCSSGGMQRDKALYLT
B3: TOX-Flag (full-length TOX) (natural protein, UniProt O94900 1-526, looked up)
chain: MDVRFYPPPAQPAAAPDAPCLGPSPCLDPYYCNKFDGENMYMSMTEPSQDYVPASQSYPGPSLESEDFNIPPITPPSLPDHSLVHLNEVESGYHSLCHPMNHNGLLPFHPQNMDLPEITVSNMLGQDGTLLSNSISVMPDIRNPEGTQYSSHPQMAAMRPRGQPADIRQQPGMMPHGQLTTINQSQLSAQLGLNMGGSNVPHNSPSPPGSKSATPSPSSSVHEDEGDDTSKINGGEKRPASDMGKKPKTPKKKKKKDPNEPQKPVSAYALFFRDTQAAIKGQNPNATFGEVSKIVASMWDGLGEEQKQVYKKKTEAAKKEYLKQLAAYRASLVSKSYSEPVDVKTSQPPQLINSKPSVFHGPSQAHSALYLSSHYHQQPGMNPHLTAMHPSLPRNIAPKPNNQMPVTVSIANMAVSPPPPLQISPPLHQHLNMQQHQPLTMQQPLGNQLPMQVQSALHSPTMQQGFTLQPDYQTIINPTSTAAQVVTQAMEYVRSGCRNPPPQPVDWNNDYCSSGGMQRDKALYLT
notes: TOX, full length (526 residues by the printed limits of TOX(C) 257-526), in pCDH vector; Both are written as this one molecule; source: HEK293T, transfected, in lysate; not shown: Flag, C-terminal, kept
B4: TOX(C)-His (257–526) (domain or fragment, UniProt O94900 257-526)
chain: DPNEPQKPVSAYALFFRDTQAAIKGQNPNATFGEVSKIVASMWDGLGEEQKQVYKKKTEAAKKEYLKQLAAYRASLVSKSYSEPVDVKTSQPPQLINSKPSVFHGPSQAHSALYLSSHYHQQPGMNPHLTAMHPSLPRNIAPKPNNQMPVTVSIANMAVSPPPPLQISPPLHQHLNMQQHQPLTMQQPLGNQLPMQVQSALHSPTMQQGFTLQPDYQTIINPTSTAAQVVTQAMEYVRSGCRNPPPQPVDWNNDYCSSGGMQRDKALYLT

These are yes or no findings as the source states them, for the method shown. Binding seen in cells or lysates may run through a third protein. A result given as binding can be weak or reduced; the word gives no strength. Sequences can lack the tags named with a protein.

The target of one test is T1, TOX-Flag (full-length TOX). In words: co-IP; exogenous co-IP in HEK293T cells co-transfected with full-length TOX, TOX-Flag or TOX2-HA and truncated TOX or TOX2 plasmids; Co-IP kit lysis buffer, antibody overnight at 4 °C, protein A/G beads.
For “TOX2(C)-Flag (311–506) (domain or fragment)”, the binding entry is on record as “no binding”.

Take “TOX2(N)-Flag (1–246) (domain or fragment)”: the binding entry was “no binding”.

For the molecule TOX2-HA (full-length TOX2), the binding result is “binds”.

The target of a further test is TOX2-HA (full-length TOX2). The description is as above.
As for B1, the binding result is given as “binds”.

As to B2, the binding result is recorded as “no binding”.

For the molecule B3, the binding entry is “binds”.

On to B4, for which the binding entry is reported as “binds”.

These data come from paper PMC11519604, “TOX2 nuclear-cytosol translocation is linked to leukemogenesis of acute T-cell leukemia by repressing TIM3 transcription” (Cell Death and Differentiation, 2024).
